Measurements taken from patent US20250145665A1, “MACROCYCLIC PEPTIDES USEFUL AS MODULATORS OF TNF ALPHA” (Bristol-Myers Squibb Company, priority 2023, published 2025).
Some of these results come from one statement about several compounds together. Starred links: 1 amine or outer side, 2 acyl side, 3 side chain; linkers in the order of their positions; H or OH if unused. Positions of bridges follow the written chain, without caps; N, C: chain ends. Non-standard residues stand in square brackets, D forms with d. Residues, ends and D or L forms follow the SMILES beside them. ξ: configuration not given here. *: point of attachment. dArg(Nω-CH2C6H4-3-CH2Gua) = N=C(N)NCc1cccc(CNC(=N)NCCC[C@@H](N)C(=O)O)c1; Bip(4'-NH) = O=C([C@H](Cc1ccc(-c2ccc(N[*:3])cc2)cc1)N[*:1])[*:2]; dArg(ω-(3-HO-benzyl)) = N=C(NCCC[C@@H](N)C(=O)O)NCc1cccc(O)c1; Indazole3carbonyl(1-CH2COOH) = O=C(O)Cn1nc(C(=O)*)c2ccccc21; Bip(4'-COOH) = N[C@@H](Cc1ccc(-c2ccc(C(=O)O)cc2)cc1)C(=O)O; X83 = N=C(NCCC[C@@H](N[*:1])C(=O)[*:2])NCCc1ccc(O)c(O)c1; X66 = N=C(NCCC[C@@H](N[*:1])C(=O)[*:2])NCc1ccc(F)c(F)c1; X44 = N#Cc1ccc(CNC(=N)NCCC[C@@H](N[*:1])C(=O)[*:2])cc1; X18 = N=C(NCCC[C@@H](N[*:1])C(=O)[*:2])NCCc1ccc(O)cc1; X58 = N=C(NCCC[C@@H](N[*:1])C(=O)[*:2])NCCc1cccc(N)c1; Ala(imidazol-2-yl) = N[C@@H](Cc1ncc[nH]1)C(=O)O; Ala(morpholin-4-yl) = N[C@@H](CN1CCOCC1)C(=O)O; Bip = N[C@@H](Cc1ccc(-c2ccccc2)cc1)C(=O)O; 2Pal = N[C@@H](Cc1ccccn1)C(=O)O; Cha = N[C@@H](CC1CCCCC1)C(=O)O; ξP = O=C(O)C1CCCN1; Sar = CNCC(=O)O

Chains of the proteins cited; added tags and fusions are not shown. Residues count along the entry.
UniProt P01375, 77-233 limits assumed: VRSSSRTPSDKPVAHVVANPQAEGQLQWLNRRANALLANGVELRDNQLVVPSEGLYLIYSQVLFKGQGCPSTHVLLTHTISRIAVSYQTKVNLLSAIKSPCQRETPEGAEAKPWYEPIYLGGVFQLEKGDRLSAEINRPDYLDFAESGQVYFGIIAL

Molecular target: TNFα (Homo sapiens, UniProt P01375)
Assay: TNF-Induced HEK-Blue Assay
Assay type: cell-based
Details: read-out: IC50 values measured in the TNF induced HEK-Blue assay; summary statement for all examples

Row | SMILES | IC50 [µM]
1 | CC(C)C[C@@H]1NC(=O)[C@H](Cc2ncc[nH]2)NC(=O)[C@H](C(C)C)NC(=O)[C@@H]2CCCN2C(=O)[C@H](C(C)C)NC(=O)[C@@H](CCCNC(=N)NCc2cccc(CNC(=N)N)c2)NC(=O)[C@H](CC(=O)O)NC(=O)[C@H](Cc2ccccn2)NC(=O)CN(C)C(=O)[C@H](Cc2ccc(-c3ccc(NC(=O)c4nn(CC(=O)O)c5ccccc45)cc3)cc2)NC(=O)[C@H](Cc2ccc(-c3ccc(C(=O)O)cc3)cc2)NC(=O)[C@H](CC2CCCCC2)NC(=O)CSC[C@@H](C(=O)NCC(N)=O)NC1=O [Example 556] ({CH2CO}-[Cha][Bip(4'-COOH)][Bip(4'-NH)](Indazole3carbonyl(1-CH2COOH))[Sar][2Pal]D[dArg(Nω-CH2C6H4-3-CH2Gua)]VPV[Ala(imidazol-2-yl)]LCG-NH2; thioether N-13) | ≤ 25
2 | CC(C)C[C@@H]1NC(=O)[C@H](CCCNC(=N)N)NC(=O)[C@H](C(C)C)NC(=O)C2CCCN2C(=O)[C@H](C(C)C)NC(=O)[C@@H](CCCNC(=N)NCCc2cccc(N)c2)NC(=O)[C@H](CC(=O)O)NC(=O)[C@@H]2CCCN2C(=O)CN(C)C(=O)[C@H](Cc2ccc(-c3ccc(NC(=O)c4nn(CC(=O)O)c5ccccc45)cc3)cc2)NC(=O)[C@H](Cc2ccc(-c3ccc(C(=O)O)cc3)cc2)NC(=O)[C@H](CN2CCOCC2)NC(=O)CSC[C@@H](C(=O)NCC(N)=O)NC1=O (stereo partly shown) [Example 406] ({CH2CO}-[Ala(morpholin-4-yl)][Bip(4'-COOH)][Bip(4'-NH)](Indazole3carbonyl(1-CH2COOH))[Sar]PD[X58]V[ξP]VRLCG-NH2; thioether N-13) | ≤ 25
3 | CC(C)C[C@@H]1NC(=O)[C@H](CCCNC(=N)N)NC(=O)[C@H](C(C)C)NC(=O)C2CCCN2C(=O)[C@H](C(C)C)NC(=O)[C@@H](CCCNC(=N)NCCc2ccc(O)c(O)c2)NC(=O)[C@H](CC(=O)O)NC(=O)[C@@H]2CCCN2C(=O)CN(C)C(=O)[C@H](Cc2ccc(-c3ccc(NC(=O)c4nn(CC(=O)O)c5ccccc45)cc3)cc2)NC(=O)[C@H](Cc2ccc(-c3ccccc3)cc2)NC(=O)[C@H](CN2CCOCC2)NC(=O)CSC[C@@H](C(=O)NCC(N)=O)NC1=O (stereo partly shown) [Example 410] ({CH2CO}-[Ala(morpholin-4-yl)][Bip][Bip(4'-NH)](Indazole3carbonyl(1-CH2COOH))[Sar]PD[X83]V[ξP]VRLCG-NH2; thioether N-13) | ≤ 25
4 | CC[C@H](C)[C@@H]1NC(=O)[C@@H](CCCNC(=N)NCc2cccc(O)c2)NC(=O)[C@H](CC(=O)O)NC(=O)[C@@H]2CCCN2C(=O)CN(C)C(=O)[C@H](Cc2ccc(-c3ccc(NC(=O)c4nn(CC(=O)O)c5ccccc45)cc3)cc2)NC(=O)[C@H](Cc2ccc(-c3ccccc3)cc2)NC(=O)[C@H](CN2CCOCC2)NC(=O)CSC[C@@H](C(=O)NCC(N)=O)NC(=O)[C@H](CC(C)C)NC(=O)[C@H](Cc2cnc[nH]2)NC(=O)[C@H](C(C)C)NC(=O)[C@@H]2CCCN2C1=O [Example 637] ({CH2CO}-[Ala(morpholin-4-yl)][Bip][Bip(4'-NH)](Indazole3carbonyl(1-CH2COOH))[Sar]PD[dArg(ω-(3-HO-benzyl))]IPVHLCG-NH2; thioether N-13) | ≤ 25
5 | CC(C)C[C@@H]1NC(=O)[C@H](CCCNC(=N)N)NC(=O)[C@H](C(C)C)NC(=O)[C@@H]2CCCN2C(=O)[C@H](C(C)C)NC(=O)[C@@H](CCCNC(=N)NCCc2ccc(O)cc2)NC(=O)[C@H](CC(=O)O)NC(=O)[C@@H]2CCCN2C(=O)CN(C)C(=O)[C@H](Cc2ccc(-c3ccc(NC(=O)c4nn(CC(=O)O)c5ccccc45)cc3)cc2)NC(=O)[C@H](Cc2ccc(-c3ccccc3)cc2)NC(=O)[C@H](CN2CCOCC2)NC(=O)CSC[C@@H](C(=O)NCC(N)=O)NC1=O [Example 403] ({CH2CO}-[Ala(morpholin-4-yl)][Bip][Bip(4'-NH)](Indazole3carbonyl(1-CH2COOH))[Sar]PD[X18]VPVRLCG-NH2; thioether N-13) | ≤ 25
6 | CC(C)C[C@@H]1NC(=O)[C@H](CCCNC(=N)N)NC(=O)[C@H](C(C)C)NC(=O)[C@@H]2CCCN2C(=O)[C@H](C(C)C)NC(=O)[C@@H](CCCNC(=N)NCc2ccc(F)c(F)c2)NC(=O)[C@H](CC(=O)O)NC(=O)[C@@H]2CCCN2C(=O)CN(C)C(=O)[C@H](Cc2ccc(-c3ccc(NC(=O)c4nn(CC(=O)O)c5ccccc45)cc3)cc2)NC(=O)[C@H](Cc2ccc(-c3ccccc3)cc2)NC(=O)[C@H](CN2CCOCC2)NC(=O)CSC[C@@H](C(=O)NCC(N)=O)NC1=O [Example 469] ({CH2CO}-[Ala(morpholin-4-yl)][Bip][Bip(4'-NH)](Indazole3carbonyl(1-CH2COOH))[Sar]PD[X66]VPVRLCG-NH2; thioether N-13) | ≤ 25
7 | CC(C)C[C@@H]1NC(=O)[C@H](CCCNC(=N)N)NC(=O)[C@H](C(C)C)NC(=O)[C@@H]2CCCN2C(=O)[C@H](C(C)C)NC(=O)[C@@H](CCCNC(=N)NCc2ccc(C#N)cc2)NC(=O)[C@H](CC(=O)O)NC(=O)[C@@H]2CCCN2C(=O)CN(C)C(=O)[C@H](Cc2ccc(-c3ccc(NC(=O)c4nn(CC(=O)O)c5ccccc45)cc3)cc2)NC(=O)[C@H](Cc2ccc(-c3ccccc3)cc2)NC(=O)[C@H](CN2CCOCC2)NC(=O)CSC[C@@H](C(=O)NCC(N)=O)NC1=O [Example 506] ({CH2CO}-[Ala(morpholin-4-yl)][Bip][Bip(4'-NH)](Indazole3carbonyl(1-CH2COOH))[Sar]PD[X44]VPVRLCG-NH2; thioether N-13) | ≤ 25
